In article PMC7819943, “Rice protein-binding microarrays: a tool to detect cis-acting elements near promoter regions in rice”:
This is one part of the list.

Amino acid sequences for entries named in this document (tags omitted).
UniProt Q0JBA9, entry or part of it: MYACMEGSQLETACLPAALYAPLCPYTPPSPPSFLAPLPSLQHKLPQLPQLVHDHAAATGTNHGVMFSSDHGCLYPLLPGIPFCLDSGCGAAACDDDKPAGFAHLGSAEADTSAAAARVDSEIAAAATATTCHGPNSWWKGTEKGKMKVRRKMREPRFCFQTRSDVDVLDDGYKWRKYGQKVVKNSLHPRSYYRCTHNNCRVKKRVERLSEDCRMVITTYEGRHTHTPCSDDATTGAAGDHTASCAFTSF

Target: OsWRKY34 (Oryza sativa, UniProt Q0JBA9 1-250)
Test: protein-binding microarray (RPBM); PBS, 2% BSA, 51.3 ng/ul salmon testes DNA, 50 uM zinc acetate, 200 nM TF, 25 C, 1 h; high values mean tight binding
Conditions: protein: recombinant; tags: N-terminal polyhistidine and DsRed monomer fusion (pET32a); label: CyDye5-dUTP incorporated in the synthesized complementary strand; 3' TTTTT single-stranded linker to array surface; dsDNA, one strand shown
Procedure, shortened: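 The binding signal is fluorescence intensity per array feature (arbitrary units). Readings came from an Axon 4000B scanner after a washed, 2% BSA-blocked, double-stranded custom Agilent array had been incubated for 1 h at 25 °C with 200 nM protein and 50 µM zinc acetate. The protein was a Ni–NTA-purified transcription factor fused N-terminally to polyhistidine and DsRed, expressed in E. coli BL21-CodonPlus.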

Sequence	binding signal
ACCGATTGCTACTCCTATTATGGAGATCGCACGCTTTTTCCGGAGTCACCTAGTGCAG	10100 fluorescence intensity (a.u.)
AAACTTCTTTCTTTGTACCTAATCATTGGTCAACCCAACTCGGAGTCACCTAGTGCAG	9830 fluorescence intensity (a.u.)
TGCTTTCGGCCCATCTCCACCCACACCCGTATCGTCTCTTCGGAGTCACCTAGTGCAG	11300 fluorescence intensity (a.u.)
TATCAGCCCAATATTGTACACGACTCCCAAATCGCTTTCTCGGAGTCACCTAGTGCAG	10100 fluorescence intensity (a.u.)
ATTTTAATGTATGACGCCGTTGACTTTTTGTCCAACGTTTCGGAGTCACCTAGTGCAG	25600 fluorescence intensity (a.u.)
AATCTACACACTCACTAGAAATATACATGTTTGTCCATATCGGAGTCACCTAGTGCAG	8100 fluorescence intensity (a.u.)
TGCCTCTTAACTCGTCGCTCTACTTTGCTTGCCACCAACACGGAGTCACCTAGTGCAG	13600 fluorescence intensity (a.u.)
ACGTGTGTGTTGTGAGCGCCTGCATTTTTGTAACTTGTTACGGAGTCACCTAGTGCAG	9050 fluorescence intensity (a.u.)
GTTTGTCGTACTCCTTTTCTTCTCTATTCTTCTCAGTACTCGGAGTCACCTAGTGCAG	8400 fluorescence intensity (a.u.)
TTATTTCCTCACCATTTTCAACTTCTACCTTTCGTTTTTCCGGAGTCACCTAGTGCAG	8260 fluorescence intensity (a.u.)
GTTCTTCTCCTTCTTCTTCTTCTTGTTACCTTTAATCCTCCGGAGTCACCTAGTGCAG	11900 fluorescence intensity (a.u.)
ATCCATAATGTAAAATTTTACCGTGTCACATCGAATATTACGGAGTCACCTAGTGCAG	9330 fluorescence intensity (a.u.)
ACATAATCTGACATTTTTCCTCAATTGATTGATCTTCTGCCGGAGTCACCTAGTGCAG	8120 fluorescence intensity (a.u.)
AATTCCCAGTCGGTCGTGCCCTAATCCCTCATTTCCTCTCCGGAGTCACCTAGTGCAG	12300 fluorescence intensity (a.u.)
ACTGCATATTGATTTACGTGAATTTTTTTTTGTCTTTTTTCGGAGTCACCTAGTGCAG	11200 fluorescence intensity (a.u.)
CTTGGGCCCTCAAAGGTTATCTTTGCTCACTCTTTCTTTTCGGAGTCACCTAGTGCAG	11100 fluorescence intensity (a.u.)
GATGGTCAAAGTTATTAAAGTTTGACCTCAACCTTATTCACGGAGTCACCTAGTGCAG	10600 fluorescence intensity (a.u.)
TCCATGCACAACCTAATTTCACTAAATTATACCATTTACACGGAGTCACCTAGTGCAG	9550 fluorescence intensity (a.u.)
AGATGTCGTCGACGACCAGGCCAACCTGGCAATGTAAATTCGGAGTCACCTAGTGCAG	9670 fluorescence intensity (a.u.)
TTGCTAGTGGGTGTGTTATTCGCCGCCTTTTATCGATCCGCGGAGTCACCTAGTGCAG	12300 fluorescence intensity (a.u.)
ACCACCATCCTTCATCACCGCCTCCGTTCCGTTCCCCATGCGGAGTCACCTAGTGCAG	8440 fluorescence intensity (a.u.)

Sequence	binding signal
CCTTGGTTTTAATTAATTCAATTTCTCGCCTCTTTTCTTCCGGAGTCACCTAGTGCAG	8620 fluorescence intensity (a.u.)
TCAACTCAAGGTGTTTTCTGATTGTGGACTGTTTGACCTCCGGAGTCACCTAGTGCAG	9870 fluorescence intensity (a.u.)
TCCCGTAGTTCTTCCGTCCCATCGTCGCGCACAATAAAGACGGAGTCACCTAGTGCAG	9720 fluorescence intensity (a.u.)
CGCGCTGTGGATTAGGGAGGTGGAGTGGATCAGGACGGGGCGGAGTCACCTAGTGCAG	8080 fluorescence intensity (a.u.)
CATCATACAGTAACAGCACAAGCACACACTACACGCACTCCGGAGTCACCTAGTGCAG	8640 fluorescence intensity (a.u.)
TTTCCCTTTGTTCATTCTGTTTTCAGCTTATAATTAAGCTCGGAGTCACCTAGTGCAG	8260 fluorescence intensity (a.u.)
GAAAACTTTACGTCCCCTGGCCTAAACACTCTTTTAGTTCCGGAGTCACCTAGTGCAG	9430 fluorescence intensity (a.u.)
CTACTCCTTCTGCTCCTGCTGACTATCGTGCTCCACCTTTCGGAGTCACCTAGTGCAG	9660 fluorescence intensity (a.u.)
TGTTGTCCTGCGTTTTTGACTGTGCTTCTTAAAAAAAAAACGGAGTCACCTAGTGCAG	8210 fluorescence intensity (a.u.)
GCTGTGGGTAGGCCGGCGCCGCCGGCCGACGGGTGGGGAGCGGAGTCACCTAGTGCAG	8420 fluorescence intensity (a.u.)
TCAATCATACGTTAATACCACCTTATTTTGTGTAAAAATCCGGAGTCACCTAGTGCAG	8260 fluorescence intensity (a.u.)
AAAATGCGAGCTACCCATCACCACACGCCACGTACTCATGCGGAGTCACCTAGTGCAG	9180 fluorescence intensity (a.u.)
ATATATATATATATATATATATATCATCAATCTTTAGTTCCGGAGTCACCTAGTGCAG	8040 fluorescence intensity (a.u.)
GTTGGCTATTTAATTGATTTCCTATACCTCAACAAAGTAACGGAGTCACCTAGTGCAG	9140 fluorescence intensity (a.u.)
GCCGCCGTCCTTGGCTCCTCACCTGTTGCCCGCAATTGCCCGGAGTCACCTAGTGCAG	8470 fluorescence intensity (a.u.)
TGGGGTGGTTCAAATGTCGACGTGATGGTCATTTTTCTTTCGGAGTCACCTAGTGCAG	16000 fluorescence intensity (a.u.)
TGAATTTGAAGCCCCACTTTTTTTGCCATATTTGTCACATCGGAGTCACCTAGTGCAG	8410 fluorescence intensity (a.u.)
ATTATATATTTCTGTTGTAGTGATTTTAGCTTGTCATTTACGGAGTCACCTAGTGCAG	12900 fluorescence intensity (a.u.)
ATGCCCCTGGCCCTTCTGCTGCCCCGTCCATTTCCCGTCCCGGAGTCACCTAGTGCAG	8060 fluorescence intensity (a.u.)
ACTTTTCTTTGAGTCTCTCTCTCATCCAATTCTTGTGTTTCGGAGTCACCTAGTGCAG	10200 fluorescence intensity (a.u.)
ACCTCCCTGATGGCCACCTTCGCTTCGTTCTTAAGCTCTCCGGAGTCACCTAGTGCAG	9480 fluorescence intensity (a.u.)

Sequence	binding signal
GGTGCGCTCCTCCCCACCTGCGCCATCGCCAACGCCAACGCGGAGTCACCTAGTGCAG	9990 fluorescence intensity (a.u.)
ATATCATAATTTGAATCGTCATGTATTTGTGTGCACGTACCGGAGTCACCTAGTGCAG	8080 fluorescence intensity (a.u.)
ACTACTTCCTCTGTTTCTAAATATTTGACGACGTTGATTTCGGAGTCACCTAGTGCAG	8050 fluorescence intensity (a.u.)
TAATGGCTCACCTCGTTTTGCGTATTTTCCCAATCTTCTCCGGAGTCACCTAGTGCAG	11100 fluorescence intensity (a.u.)
GATTCTTTCTCTCTCTTTCAGATTCGTTGTCTCACTGACACGGAGTCACCTAGTGCAG	8290 fluorescence intensity (a.u.)
CTTGTGGCATCATTTTTGCAGTTTCGTCCATGTCCGACGTCGGAGTCACCTAGTGCAG	9070 fluorescence intensity (a.u.)
ACTGATGAAATGGCGGTATTTTTATAGGCGGGGTGAGTGGCGGAGTCACCTAGTGCAG	9560 fluorescence intensity (a.u.)
TTCTTCTGCTCTTTCTTCTTCCTTTGGCACTGGAGGCGGCCGGAGTCACCTAGTGCAG	11300 fluorescence intensity (a.u.)
GTGCACCACCTGCACCGCCTCGTGCTCACGAAACCCGATCCGGAGTCACCTAGTGCAG	8230 fluorescence intensity (a.u.)
ACACGTGTGCATGCAACTATATGGTCGTTTTATTTTATTTCGGAGTCACCTAGTGCAG	10100 fluorescence intensity (a.u.)
CTATTTTATGTTTTTTACATGCGTTTTACAGGGTTGCTTACGGAGTCACCTAGTGCAG	8720 fluorescence intensity (a.u.)
GCATTCCTTGCTGTTGCATACCCTTCTCACCCCTTGCCTTCGGAGTCACCTAGTGCAG	9460 fluorescence intensity (a.u.)
CGACGCATGGGCCAACTCACTGTCCGCCATCCACCAGTTGCGGAGTCACCTAGTGCAG	8120 fluorescence intensity (a.u.)
GCCCGCCAGTCAAACCTCGAGGGAGCTTTGACCAGTCAACCGGAGTCACCTAGTGCAG	10400 fluorescence intensity (a.u.)
CCCACTAACTTATGGCTTTTCCCATCCGTGCTATATCCCTCGGAGTCACCTAGTGCAG	9270 fluorescence intensity (a.u.)
GGCCGAGCCGCCCGTTTCGTTCTATCAGACTCTTCTTTATCGGAGTCACCTAGTGCAG	12200 fluorescence intensity (a.u.)
GAAGTGATGAATATATTAAACTGGTTTGGCTATTATTTCCCGGAGTCACCTAGTGCAG	8360 fluorescence intensity (a.u.)
GCATTTTTGAACTTCGACACAGTCTTCAATATACTACTTTCGGAGTCACCTAGTGCAG	9230 fluorescence intensity (a.u.)
AATTTGCCTAATCTCATTCGAAACTGTTCAAATTTCAATTCGGAGTCACCTAGTGCAG	8200 fluorescence intensity (a.u.)
TCCCCTTTTGTTGACTTACCAGAATTCGCCTTATTCTGTTCGGAGTCACCTAGTGCAG	14900 fluorescence intensity (a.u.)
TGCCTCTTGTCTAATTCCTATGGAACACTTCATTTATTTACGGAGTCACCTAGTGCAG	11400 fluorescence intensity (a.u.)

Sequence	binding signal
AATGTGTGAAACTTTCCCTTGTTCCTAGTCCATTTCACTACGGAGTCACCTAGTGCAG	9460 fluorescence intensity (a.u.)
TCTGTTTTCGTCCATAAGTGCTACAGTTTGTGATTTGTCTCGGAGTCACCTAGTGCAG	8280 fluorescence intensity (a.u.)
GTATCATTTTTGTGCGGTTTCCTTTTTTTTGGCGCAATATCGGAGTCACCTAGTGCAG	8070 fluorescence intensity (a.u.)
GGGCCACGATGGTGTTGTACCTCGCCGTCTTCCTGCTCGGCGGAGTCACCTAGTGCAG	8100 fluorescence intensity (a.u.)
TCCTCATCGCATCGCATCGCATCACCTCGCACGGGCGCGCCGGAGTCACCTAGTGCAG	9030 fluorescence intensity (a.u.)
CCAAAGCCTGCACACATAACATAAGCTCCGGCATCATCTCCGGAGTCACCTAGTGCAG	9310 fluorescence intensity (a.u.)
AGACCGCACGTGACACTGCAGCTGGGACCCACCATTTCCCCGGAGTCACCTAGTGCAG	9350 fluorescence intensity (a.u.)
TTAGGGTCTTTTATGTAGTAGTATCTGTTATCATTTCTGGCGGAGTCACCTAGTGCAG	8850 fluorescence intensity (a.u.)
TCTTGGGCCTTGGTATTGTTGCTCCAAGATCTTTGCCACTCGGAGTCACCTAGTGCAG	9210 fluorescence intensity (a.u.)
TTACCCCATTAATCACTTTTTGTTGAAATTTCTCTCTATTCGGAGTCACCTAGTGCAG	9420 fluorescence intensity (a.u.)
GTCCATCCGCGCGCACGATCTCACCACCACACGATTGAGTCGGAGTCACCTAGTGCAG	10300 fluorescence intensity (a.u.)
GCACGTTCCCGTCTAACCCTGCTATCTTTTCACTCATATCCGGAGTCACCTAGTGCAG	12600 fluorescence intensity (a.u.)
CTTGCGCCCTGGGGCCCCGCGCGCCGCCGACACCCTCCTCCGGAGTCACCTAGTGCAG	8500 fluorescence intensity (a.u.)
AGCTGATGTTTCTCATTAACTTTACGCTACTGCTACCGCACGGAGTCACCTAGTGCAG	9010 fluorescence intensity (a.u.)
GGTCTTTTTTCATGTGTATTCTTGTTGGATCTTCTGATATCGGAGTCACCTAGTGCAG	8130 fluorescence intensity (a.u.)
GAGCGCGGAGCCAACCTAATTTTTATCTCCATCAGTTTCACGGAGTCACCTAGTGCAG	8610 fluorescence intensity (a.u.)
CCACTTGTCACCGTGCTTCTCCAATCTCTATCATCGTGCGCGGAGTCACCTAGTGCAG	9170 fluorescence intensity (a.u.)
GAGTCGTTGTGTGCGTGTGTGGGAAAGGAGAGGGAGAAAGCGGAGTCACCTAGTGCAG	8040 fluorescence intensity (a.u.)
TAAATTCCTATATTGTTTCTTTCCTATTTGTATAGTCGCACGGAGTCACCTAGTGCAG	8500 fluorescence intensity (a.u.)
GTATGTTATGGGCTTATTCGTGGGTACGCAAGTCTAGTATCGGAGTCACCTAGTGCAG	8860 fluorescence intensity (a.u.)
CCAAAATTTACTCCTTTTTCACTGCTTTGTTGCCTTGTTACGGAGTCACCTAGTGCAG	10800 fluorescence intensity (a.u.)

An excerpt from the list above, for reference:
Sequence	binding signal
GGTCTTTTTTCATGTGTATTCTTGTTGGATCTTCTGATATCGGAGTCACCTAGTGCAG	8130 fluorescence intensity (a.u.)
GAGCGCGGAGCCAACCTAATTTTTATCTCCATCAGTTTCACGGAGTCACCTAGTGCAG	8610 fluorescence intensity (a.u.)
CCACTTGTCACCGTGCTTCTCCAATCTCTATCATCGTGCGCGGAGTCACCTAGTGCAG	9170 fluorescence intensity (a.u.)
